Laboratory results: the supplement of paper PMC3741180, “A Novel High Throughput Biochemical Assay to Evaluate the HuR Protein-RNA Complex Formation” (PLoS ONE, 2013)
The list shows a part of the results. Most values lie within the scatter of the assay; repeated measurements hardly agree.

The chains behind the UniProt entries cited, without tags or fusion partners.
UniProt Q15717, whole entry: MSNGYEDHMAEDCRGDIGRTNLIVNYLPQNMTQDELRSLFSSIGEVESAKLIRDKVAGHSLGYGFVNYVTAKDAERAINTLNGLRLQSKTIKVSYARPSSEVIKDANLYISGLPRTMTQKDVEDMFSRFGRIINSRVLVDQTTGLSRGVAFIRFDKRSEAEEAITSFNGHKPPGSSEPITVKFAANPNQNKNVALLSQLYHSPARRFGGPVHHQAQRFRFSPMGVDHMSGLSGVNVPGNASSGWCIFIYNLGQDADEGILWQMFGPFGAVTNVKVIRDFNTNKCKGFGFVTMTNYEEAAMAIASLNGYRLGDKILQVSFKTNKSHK

The molecules below were run against HuR (ELAVL1) - TNFalpha ARE RNA complex (UniProt Q15717) (assay: AlphaScreen HuR-RNA complex signal Z-score relative to positive (Bi-TNF, DMSO) controls (Z-score (SD units of positive control)); higher = more complex signal). Settings: screen stage: primary screen; compound concentration: 25 nM.
`COP(N)(=O)SC` (configuration not stated) was tested, and the “AlphaScreen HuR-RNA complex signal Z-score” value was 3.01.
With `C[C@H](N)[C@H](O)c1ccc(O)c(O)c1` the “AlphaScreen HuR-RNA complex signal Z-score” value was 1.35.
With `O=[N+]([O-])O[C@@H]1CO[C@H]2[C@@H]1OC[C@@H]2O` the “AlphaScreen HuR-RNA complex signal Z-score” value was 0.551.
With `OC1CCCCC1N1CCC(c2ccccc2)CC1` (configuration not stated) the “AlphaScreen HuR-RNA complex signal Z-score” value was 0.822.
In the case of `N[C@@H](Cc1ccc(N(CCCl)CCCl)cc1)C(=O)O`, the “AlphaScreen HuR-RNA complex signal Z-score” value is reported as -0.153.
In the case of `NC(=O)c1ccc(N)nc1`, the “AlphaScreen HuR-RNA complex signal Z-score” value is reported as 1.39.
In the case of `CC(C)=CCOc1c2occc2cc2ccc(=O)oc12`, the “AlphaScreen HuR-RNA complex signal Z-score” value is reported as 2.25.
`CC1=CC(=O)c2c(O)cccc2C1=O` was tested, and the “AlphaScreen HuR-RNA complex signal Z-score” value was 1.11.
For `O=C1CN=C(c2ccccc2Cl)c2cc([N+](=O)[O-])ccc2N1`, the “AlphaScreen HuR-RNA complex signal Z-score” value was 1.11.
For `C[C@H]1O[C@H](O[C@H]2[C@H](O)[C@@H](O)[C@@H](O)[C@H](O)[C@@H]2O)[C@@H](N)C[C@@H]1NC(=N)C(=O)O`, the “AlphaScreen HuR-RNA complex signal Z-score” value was 0.301.
In the case of `CN1[C@@H]2CC[C@H]1C[C@@H](OC(=O)[C@H](CO)c1ccccc1)C2`, the “AlphaScreen HuR-RNA complex signal Z-score” value is reported as 1.66.
With `ClC1=C(Cl)C2(Cl)C3C(Cl)C(Cl)CC3C1(Cl)C2(Cl)Cl` (configuration not stated) the “AlphaScreen HuR-RNA complex signal Z-score” value was 2.34.
With `O=C1C=CC(=O)c2c(O)cccc21` the “AlphaScreen HuR-RNA complex signal Z-score” value was 1.65.
In the case of `COc1ccc2c(c1)[C@]13CCCC[C@@H]1[C@H](C2)N(C)CC3`, the “AlphaScreen HuR-RNA complex signal Z-score” value is reported as -1.64.
In the case of `C=C[C@H]1CN2CC[C@H]1C[C@H]2[C@H](O)c1ccnc2ccccc12`, the “AlphaScreen HuR-RNA complex signal Z-score” value is reported as 0.0721.
In the case of `C[C@H]1O[C@@H](O[C@H]2[C@@H](O)C[C@H](O[C@H]3[C@@H](O)C[C@H](O[C@H]4CC[C@@]5(C)[C@H](CC[C@@H]6[C@@H]5CC[C@]5(C)[C@@H](C7=CC(=O)OC7)[C@@H](O)C[C@]65O)C4)O[C@@H]3C)O[C@@H]2C)C[C@H](O)[C@@H]1O`, the “AlphaScreen HuR-RNA complex signal Z-score” value is reported as 1.86.
In the case of `CC1=NCCc2c1[nH]c1cc(O)ccc21`, the “AlphaScreen HuR-RNA complex signal Z-score” value is reported as 1.33.
With `CSc1nc(NC(C)C)nc(NC(C)C)n1` the “AlphaScreen HuR-RNA complex signal Z-score” value was 2.29.
`COc1cc(OC)c2c(c1)O[C@H](c1ccc(OC)c(OC)c1)[C@@H](O)C2` was tested, and the “AlphaScreen HuR-RNA complex signal Z-score” value was 0.916.
With `CNC(=O)ON=C(C)SC` the “AlphaScreen HuR-RNA complex signal Z-score” value was 2.2.
With `C=CC[C@]1(O)CC[C@H]2[C@@H]3CCC4=CC(=O)CCC4=C3C=C[C@@]21C` the “AlphaScreen HuR-RNA complex signal Z-score” value was 0.351.
In the case of `OC[C@@H]1CCCN2CCCC[C@H]12`, the “AlphaScreen HuR-RNA complex signal Z-score” value is reported as 2.1.
With `C1CCc2nnnn2CC1` the “AlphaScreen HuR-RNA complex signal Z-score” value was 4.55.
In the case of `CC(Cc1ccc(O)cc1)NCC(O)c1cc(O)cc(O)c1` (configuration not stated), the “AlphaScreen HuR-RNA complex signal Z-score” value is reported as 0.761.
`C=C[C@H]1CN2CC[C@H]1C[C@@H]2[C@@H](O)c1ccnc2ccccc12` was tested, and the “AlphaScreen HuR-RNA complex signal Z-score” value was 0.173.
`CC(C)CC(N(C)C)C1(c2ccc(Cl)cc2)CCC1` (configuration not stated) was tested, and the “AlphaScreen HuR-RNA complex signal Z-score” value was 2.71.
For `O=C([O-])c1ccccc1-c1c2cc(Br)c(=O)cc-2oc2[c]([Hg+])c([O-])c(Br)cc12.[Na+].[Na+].[OH-]`, the “AlphaScreen HuR-RNA complex signal Z-score” value was -0.828.
In the case of `N#C/C(=C\c1cccc(O)c1)C(=O)O` [alpha-CYANO-3-HYDROXYCINNAMIC ACID], the “AlphaScreen HuR-RNA complex signal Z-score” value is reported as -0.54.
With `CC(=O)O[C@@H]1C[C@@]2(C)[C@H](c3ccoc3)C[C@H]3O[C@]32[C@]2(C)C(=O)C(O)=C3C(C)(C)C(=O)C=C[C@]3(C)[C@@H]12` the “AlphaScreen HuR-RNA complex signal Z-score” value was 2.2.
`C#C[C@]1(O)CC[C@H]2[C@@H]3CCC4=CC(=O)CC[C@]4(C)[C@H]3CC[C@@]21C` was tested, and the “AlphaScreen HuR-RNA complex signal Z-score” value was 1.18.
For `COP(=S)(OC)SCn1nnc2ccccc2c1=O`, the “AlphaScreen HuR-RNA complex signal Z-score” value was -0.145.
In the case of `CC(C)[N+](C)(CCC(C(N)=O)(c1ccccc1)c1ccccc1)C(C)C`, the “AlphaScreen HuR-RNA complex signal Z-score” value is reported as 0.781.
In the case of `COC(=O)COc1ccc(Cl)cc1Cl`, the “AlphaScreen HuR-RNA complex signal Z-score” value is reported as 1.97.
In the case of `C[C@]12CC[C@H]3[C@@H](CC[C@]4(O)C[C@@H](O)CC[C@]34C=O)[C@@]1(O)CC[C@@H]2C1=CC(=O)OC1`, the “AlphaScreen HuR-RNA complex signal Z-score” value is reported as 2.08.
`CC(Oc1ccc(Cl)cc1Cl)C(=O)O` (configuration not stated) was tested, and the “AlphaScreen HuR-RNA complex signal Z-score” value was 2.46.
With `CC[C@H](C)[C@H]1O[C@]2(C=C[C@@H]1C)C[C@@H]1C[C@@H](C/C=C(\C)[C@@H](O[C@H]3C[C@H](OC)[C@@H](O[C@H]4C[C@H](OC)[C@@H](O)[C@H](C)O4)[C@H](C)O3)[C@@H](C)/C=C/C=C3\CO[C@@H]4[C@H](O)C(C)=C[C@@H](C(=O)O1)[C@]34O)O2.CO[C@H]1C[C@H](O[C@H]2[C@H](C)O[C@@H](O[C@@H]3/C(C)=C/C[C@@H]4C[C@@H](C[C@]5(C=C[C@H](C)[C@@H](C(C)C)O5)O4)OC(=O)[C@@H]4C=C(C)[C@@H](O)[C@H]5OC/C(=C\C=C\[C@@H]3C)[C@]54O)C[C@@H]2OC)O[C@@H](C)[C@@H]1O` the “AlphaScreen HuR-RNA complex signal Z-score” value was 0.426.
In the case of `COc1cc([C@@H]2c3cc4c(cc3[C@H](OC(C)=O)[C@H]3COC(=O)[C@H]23)OCO4)cc(OC)c1OC`, the “AlphaScreen HuR-RNA complex signal Z-score” value is reported as 0.313.
`Nc1ccncc1` was tested, and the “AlphaScreen HuR-RNA complex signal Z-score” value was 0.867.
In the case of `O=C(O)CNCP(=O)(O)O`, the “AlphaScreen HuR-RNA complex signal Z-score” value is reported as 0.35.
For `COC(=O)[C@@H]1C[C@H](OC(C)=O)C(=O)[C@H]2[C@@]1(C)CC[C@H]1C(=O)O[C@H](c3ccoc3)C[C@]21C`, the “AlphaScreen HuR-RNA complex signal Z-score” value was 1.83.
`CC[C@@]1(O)C[C@H](O)c2c(cc3c(c2O)C(=O)c2c(O)ccc(O)c2C3=O)[C@H]1C(=O)OC` was tested, and the “AlphaScreen HuR-RNA complex signal Z-score” value was 1.83.
In the case of `O=C(O)CCCc1ccc(N(CCCl)CCCl)cc1`, the “AlphaScreen HuR-RNA complex signal Z-score” value is reported as -2.55.
For `COc1nc(NC(C)C)nc(NC(C)C)n1`, the “AlphaScreen HuR-RNA complex signal Z-score” value was 2.63.
For `Oc1noc2c1CCNC2`, the “AlphaScreen HuR-RNA complex signal Z-score” value was 2.02.
For `O=c1ccc2c(O)c3ccoc3cc2o1`, the “AlphaScreen HuR-RNA complex signal Z-score” value was 1.43.
For `C/C=C(/C)C(=O)O[C@H]1CC[C@@]2(C)[C@@H]3CC[C@H]4[C@]5(O)C[C@H](O)[C@@]6(O)[C@@H](CN7C[C@@H](C)CC[C@H]7[C@@]6(C)O)[C@]5(O)C[C@@]42O[C@]13O`, the “AlphaScreen HuR-RNA complex signal Z-score” value was 1.25.
In the case of `CCCC(C)C1(CC)C(=O)NC(=S)NC1=O` (configuration not stated), the “AlphaScreen HuR-RNA complex signal Z-score” value is reported as 1.57.
For `COc1cc([C@@H]2c3cc4c(cc3[C@H](O)[C@H]3COC(=O)[C@@H]23)OCO4)cc(OC)c1OC`, the “AlphaScreen HuR-RNA complex signal Z-score” value was 0.866.
In the case of `ClC1=C(Cl)C2(Cl)C3C(Cl)C=CC3C1(Cl)C2(Cl)Cl` (configuration not stated), the “AlphaScreen HuR-RNA complex signal Z-score” value is reported as 1.84.
`O=C1C=C2C=C[C@@H]3C[C@@]2(O1)[C@H]1CCCCN31` was tested, and the “AlphaScreen HuR-RNA complex signal Z-score” value was 2.
For `N#Cc1c(Cl)cccc1Cl`, the “AlphaScreen HuR-RNA complex signal Z-score” value was -1.11.
In the case of `CC(C)=CC1C(C(=O)OCc2cccc(Oc3ccccc3)c2)C1(C)C` (configuration not stated), the “AlphaScreen HuR-RNA complex signal Z-score” value is reported as 1.2.
In the case of `C[CH2][Hg][S]c1ccccc1C(=O)[O-].[Na+]`, the “AlphaScreen HuR-RNA complex signal Z-score” value is reported as 17.4.
For `CC1(C)C(=O)C=C[C@]2(C)[C@H]3CC[C@@]4(C)[C@H](c5ccoc5)OC(=O)[C@H]5O[C@]54[C@]3(C)[C@H](O)C[C@@H]12`, the “AlphaScreen HuR-RNA complex signal Z-score” value was -2.23.
With `CC[C@@]1(O)C(=O)OCc2c1cc1n(c2=O)Cc2cc3ccccc3nc2-1` the “AlphaScreen HuR-RNA complex signal Z-score” value was 0.413.
In the case of `O=C1C[C@@H]2OCC=C3CN4CC[C@]56c7ccccc7N1[C@H]5[C@H]2[C@H]3C[C@H]46`, the “AlphaScreen HuR-RNA complex signal Z-score” value is reported as 1.67.
In the case of `N#Cc1nn(-c2c(Cl)cc(C(F)(F)F)cc2Cl)c(N)c1[S+]([O-])C(F)(F)F` (configuration not stated), the “AlphaScreen HuR-RNA complex signal Z-score” value is reported as 0.775.
